The text below walks through data of the supplement of paper PMC12067093, “Discovery and optimisation of a covalent ligand for TRIM25 and its application to targeted protein ubiquitination” (Chemical Science, 2025).

Sequences of proteins named here, by UniProt entry; tags and fusion partners are left off. A change or cut given only in a name is not applied to a line headed by its entry.
UniProt Q93009, whole entry, looked up: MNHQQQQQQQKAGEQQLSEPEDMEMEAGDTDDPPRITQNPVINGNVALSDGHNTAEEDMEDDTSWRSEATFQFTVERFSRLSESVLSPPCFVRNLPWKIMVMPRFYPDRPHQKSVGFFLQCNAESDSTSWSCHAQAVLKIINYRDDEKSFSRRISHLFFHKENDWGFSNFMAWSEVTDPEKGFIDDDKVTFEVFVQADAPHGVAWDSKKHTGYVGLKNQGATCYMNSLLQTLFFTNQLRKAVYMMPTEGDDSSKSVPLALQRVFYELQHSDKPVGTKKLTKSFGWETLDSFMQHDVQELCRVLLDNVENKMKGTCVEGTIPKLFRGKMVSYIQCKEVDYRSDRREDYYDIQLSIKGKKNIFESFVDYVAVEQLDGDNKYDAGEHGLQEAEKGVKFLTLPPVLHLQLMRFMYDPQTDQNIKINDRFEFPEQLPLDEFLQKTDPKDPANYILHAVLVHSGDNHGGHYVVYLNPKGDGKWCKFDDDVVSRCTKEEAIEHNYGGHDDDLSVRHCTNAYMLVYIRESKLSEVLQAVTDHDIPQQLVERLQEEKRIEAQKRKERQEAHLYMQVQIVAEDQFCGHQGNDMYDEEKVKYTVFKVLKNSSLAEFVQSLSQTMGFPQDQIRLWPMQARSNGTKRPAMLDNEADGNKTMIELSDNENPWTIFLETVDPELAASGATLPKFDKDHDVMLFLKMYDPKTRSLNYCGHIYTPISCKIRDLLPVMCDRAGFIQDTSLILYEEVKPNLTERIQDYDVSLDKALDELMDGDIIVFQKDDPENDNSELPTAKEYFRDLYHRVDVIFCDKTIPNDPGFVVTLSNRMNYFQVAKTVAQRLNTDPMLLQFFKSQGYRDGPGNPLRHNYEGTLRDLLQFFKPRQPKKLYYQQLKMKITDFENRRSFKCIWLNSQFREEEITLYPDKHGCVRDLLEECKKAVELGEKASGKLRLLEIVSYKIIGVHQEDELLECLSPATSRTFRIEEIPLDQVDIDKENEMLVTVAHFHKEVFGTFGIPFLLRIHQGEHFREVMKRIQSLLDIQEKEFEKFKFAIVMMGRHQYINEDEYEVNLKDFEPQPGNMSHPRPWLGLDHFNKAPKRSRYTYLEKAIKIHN
UniProt P10746: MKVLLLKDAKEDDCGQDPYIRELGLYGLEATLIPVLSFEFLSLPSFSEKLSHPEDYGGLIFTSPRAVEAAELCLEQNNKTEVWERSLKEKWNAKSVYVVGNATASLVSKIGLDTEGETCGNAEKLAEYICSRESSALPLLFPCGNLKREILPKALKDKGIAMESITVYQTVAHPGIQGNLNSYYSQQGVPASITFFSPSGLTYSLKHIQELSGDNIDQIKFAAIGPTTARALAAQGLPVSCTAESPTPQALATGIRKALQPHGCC
UniProt Q9NVE5: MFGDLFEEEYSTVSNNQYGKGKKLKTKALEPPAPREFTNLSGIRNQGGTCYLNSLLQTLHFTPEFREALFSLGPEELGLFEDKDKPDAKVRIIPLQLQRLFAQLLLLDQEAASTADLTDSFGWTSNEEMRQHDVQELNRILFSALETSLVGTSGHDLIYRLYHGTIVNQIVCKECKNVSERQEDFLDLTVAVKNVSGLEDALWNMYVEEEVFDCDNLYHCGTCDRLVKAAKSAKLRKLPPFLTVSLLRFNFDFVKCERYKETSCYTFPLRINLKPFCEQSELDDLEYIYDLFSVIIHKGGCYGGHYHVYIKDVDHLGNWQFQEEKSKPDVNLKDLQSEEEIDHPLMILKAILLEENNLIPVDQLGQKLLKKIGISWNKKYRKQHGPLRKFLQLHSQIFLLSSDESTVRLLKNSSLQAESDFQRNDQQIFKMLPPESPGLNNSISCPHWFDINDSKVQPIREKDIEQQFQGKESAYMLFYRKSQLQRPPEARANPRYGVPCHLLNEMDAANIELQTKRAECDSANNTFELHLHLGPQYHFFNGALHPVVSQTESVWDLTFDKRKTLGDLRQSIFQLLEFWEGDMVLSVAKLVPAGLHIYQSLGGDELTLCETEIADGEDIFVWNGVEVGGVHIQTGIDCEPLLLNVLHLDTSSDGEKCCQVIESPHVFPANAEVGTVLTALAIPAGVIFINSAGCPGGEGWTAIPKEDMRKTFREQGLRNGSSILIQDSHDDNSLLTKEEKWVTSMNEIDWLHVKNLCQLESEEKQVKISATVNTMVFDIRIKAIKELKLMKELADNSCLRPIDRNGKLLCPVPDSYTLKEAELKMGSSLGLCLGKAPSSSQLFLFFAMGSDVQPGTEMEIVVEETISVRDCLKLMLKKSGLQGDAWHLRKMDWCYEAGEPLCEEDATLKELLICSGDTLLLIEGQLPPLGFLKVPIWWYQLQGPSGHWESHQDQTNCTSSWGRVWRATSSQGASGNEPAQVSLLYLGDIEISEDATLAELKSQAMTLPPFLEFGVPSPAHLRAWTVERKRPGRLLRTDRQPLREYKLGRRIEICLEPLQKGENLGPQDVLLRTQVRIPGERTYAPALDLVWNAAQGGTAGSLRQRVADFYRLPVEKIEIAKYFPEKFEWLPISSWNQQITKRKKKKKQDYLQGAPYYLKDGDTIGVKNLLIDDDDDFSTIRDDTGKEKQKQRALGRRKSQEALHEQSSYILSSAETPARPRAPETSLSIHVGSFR
UniProt Q86UV5: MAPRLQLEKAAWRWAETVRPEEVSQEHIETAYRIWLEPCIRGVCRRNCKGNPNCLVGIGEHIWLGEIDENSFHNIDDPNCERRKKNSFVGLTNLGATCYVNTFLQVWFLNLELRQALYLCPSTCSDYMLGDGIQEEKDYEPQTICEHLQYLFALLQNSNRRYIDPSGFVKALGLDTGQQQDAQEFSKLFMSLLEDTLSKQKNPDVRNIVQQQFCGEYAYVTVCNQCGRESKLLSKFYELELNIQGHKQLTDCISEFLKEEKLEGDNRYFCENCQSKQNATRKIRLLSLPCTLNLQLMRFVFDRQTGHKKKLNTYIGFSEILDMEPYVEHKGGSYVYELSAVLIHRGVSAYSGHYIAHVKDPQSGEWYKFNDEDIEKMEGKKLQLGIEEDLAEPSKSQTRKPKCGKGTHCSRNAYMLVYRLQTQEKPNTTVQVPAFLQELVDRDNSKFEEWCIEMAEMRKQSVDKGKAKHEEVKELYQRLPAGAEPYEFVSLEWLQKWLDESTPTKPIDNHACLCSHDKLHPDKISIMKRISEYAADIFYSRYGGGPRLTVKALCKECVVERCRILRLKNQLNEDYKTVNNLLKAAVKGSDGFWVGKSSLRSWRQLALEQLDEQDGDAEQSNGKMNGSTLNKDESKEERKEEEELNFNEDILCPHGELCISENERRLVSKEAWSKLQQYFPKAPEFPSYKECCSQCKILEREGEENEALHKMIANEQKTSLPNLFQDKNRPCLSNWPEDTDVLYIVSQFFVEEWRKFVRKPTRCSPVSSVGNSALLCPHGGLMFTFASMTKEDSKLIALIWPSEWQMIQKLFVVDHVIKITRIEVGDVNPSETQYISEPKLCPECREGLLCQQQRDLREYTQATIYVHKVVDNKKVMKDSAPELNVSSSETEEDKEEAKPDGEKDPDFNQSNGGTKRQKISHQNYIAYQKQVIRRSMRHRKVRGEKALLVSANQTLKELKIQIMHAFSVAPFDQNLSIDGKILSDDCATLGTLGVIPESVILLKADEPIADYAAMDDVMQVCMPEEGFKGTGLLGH
UniProt A0JNW5: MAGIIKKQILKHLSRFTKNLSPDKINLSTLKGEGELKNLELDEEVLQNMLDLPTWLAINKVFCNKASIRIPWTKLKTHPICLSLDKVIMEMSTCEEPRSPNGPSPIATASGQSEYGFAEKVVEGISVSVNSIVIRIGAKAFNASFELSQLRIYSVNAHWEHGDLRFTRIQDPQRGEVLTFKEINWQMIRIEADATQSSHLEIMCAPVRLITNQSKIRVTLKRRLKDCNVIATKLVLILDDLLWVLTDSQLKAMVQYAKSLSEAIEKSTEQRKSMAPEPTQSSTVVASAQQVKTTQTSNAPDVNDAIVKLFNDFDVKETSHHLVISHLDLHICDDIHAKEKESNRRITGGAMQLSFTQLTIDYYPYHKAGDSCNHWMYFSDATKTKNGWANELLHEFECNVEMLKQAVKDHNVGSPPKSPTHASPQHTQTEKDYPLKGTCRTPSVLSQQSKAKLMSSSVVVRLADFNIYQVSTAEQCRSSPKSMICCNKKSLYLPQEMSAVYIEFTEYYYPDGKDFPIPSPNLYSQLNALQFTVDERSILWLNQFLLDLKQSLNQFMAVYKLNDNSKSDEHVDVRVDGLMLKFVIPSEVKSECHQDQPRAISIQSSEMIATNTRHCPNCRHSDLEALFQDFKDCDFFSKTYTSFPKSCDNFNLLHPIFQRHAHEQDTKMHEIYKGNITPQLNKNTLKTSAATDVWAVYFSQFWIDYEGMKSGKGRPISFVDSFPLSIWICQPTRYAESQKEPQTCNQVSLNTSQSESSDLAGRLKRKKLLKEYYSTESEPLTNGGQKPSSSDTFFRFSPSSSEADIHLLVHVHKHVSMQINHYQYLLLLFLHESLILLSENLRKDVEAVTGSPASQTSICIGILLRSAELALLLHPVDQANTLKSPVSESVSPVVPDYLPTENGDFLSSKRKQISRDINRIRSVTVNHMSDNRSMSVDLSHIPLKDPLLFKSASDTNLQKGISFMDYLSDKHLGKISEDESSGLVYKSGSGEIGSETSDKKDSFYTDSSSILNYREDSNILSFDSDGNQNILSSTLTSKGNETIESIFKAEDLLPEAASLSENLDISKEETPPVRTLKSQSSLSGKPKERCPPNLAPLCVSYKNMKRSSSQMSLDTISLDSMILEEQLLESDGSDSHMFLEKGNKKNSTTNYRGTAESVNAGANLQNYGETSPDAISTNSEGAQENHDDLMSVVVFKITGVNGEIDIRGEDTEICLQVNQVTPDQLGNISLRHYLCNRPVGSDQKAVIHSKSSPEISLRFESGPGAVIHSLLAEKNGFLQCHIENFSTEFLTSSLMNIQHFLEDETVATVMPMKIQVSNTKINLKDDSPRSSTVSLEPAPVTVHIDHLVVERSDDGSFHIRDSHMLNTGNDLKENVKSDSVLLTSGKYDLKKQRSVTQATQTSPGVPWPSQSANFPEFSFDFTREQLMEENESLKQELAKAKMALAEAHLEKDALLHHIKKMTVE
UniProt P54578: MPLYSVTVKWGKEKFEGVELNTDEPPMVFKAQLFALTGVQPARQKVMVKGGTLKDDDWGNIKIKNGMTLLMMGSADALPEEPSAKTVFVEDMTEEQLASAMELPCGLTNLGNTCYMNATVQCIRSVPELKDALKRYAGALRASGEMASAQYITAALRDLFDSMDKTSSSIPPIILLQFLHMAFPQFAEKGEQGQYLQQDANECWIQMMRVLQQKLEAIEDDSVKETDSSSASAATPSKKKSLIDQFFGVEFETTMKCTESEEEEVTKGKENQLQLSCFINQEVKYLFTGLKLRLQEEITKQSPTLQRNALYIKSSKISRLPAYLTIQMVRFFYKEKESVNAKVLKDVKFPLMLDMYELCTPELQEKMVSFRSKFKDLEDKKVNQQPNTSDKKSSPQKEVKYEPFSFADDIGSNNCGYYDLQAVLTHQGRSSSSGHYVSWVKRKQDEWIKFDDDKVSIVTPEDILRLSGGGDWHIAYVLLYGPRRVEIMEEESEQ
UniProt Q96T88: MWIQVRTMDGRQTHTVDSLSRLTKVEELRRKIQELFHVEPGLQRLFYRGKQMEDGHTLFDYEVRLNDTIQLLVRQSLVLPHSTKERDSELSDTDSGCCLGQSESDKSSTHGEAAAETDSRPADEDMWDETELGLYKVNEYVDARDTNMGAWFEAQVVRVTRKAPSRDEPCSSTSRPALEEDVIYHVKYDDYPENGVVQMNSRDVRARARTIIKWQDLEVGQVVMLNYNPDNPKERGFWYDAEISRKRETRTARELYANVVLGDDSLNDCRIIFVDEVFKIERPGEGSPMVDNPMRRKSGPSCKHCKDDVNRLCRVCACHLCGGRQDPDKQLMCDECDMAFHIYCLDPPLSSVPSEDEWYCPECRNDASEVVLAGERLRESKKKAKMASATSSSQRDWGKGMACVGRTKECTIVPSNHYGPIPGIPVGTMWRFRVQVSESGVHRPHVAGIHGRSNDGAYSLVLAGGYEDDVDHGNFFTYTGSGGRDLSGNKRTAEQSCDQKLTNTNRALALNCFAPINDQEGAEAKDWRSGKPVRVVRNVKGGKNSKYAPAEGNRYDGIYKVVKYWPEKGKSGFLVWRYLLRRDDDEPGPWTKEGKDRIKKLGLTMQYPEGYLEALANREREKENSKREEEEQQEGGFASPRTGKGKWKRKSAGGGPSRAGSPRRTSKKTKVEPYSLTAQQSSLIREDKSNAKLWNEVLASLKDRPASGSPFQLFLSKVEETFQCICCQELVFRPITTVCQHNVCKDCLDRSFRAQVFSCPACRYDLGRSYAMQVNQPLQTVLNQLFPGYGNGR

Some of the results follow.

Compound in this experiment: Cc1cc(ccc1-c1ccccc1)C(=O)N1CCCN(CC1)C(=O)CCl [compound 10]
The experiment can be described thus: probe-labelled cysteine peptide fold change vs DMSO (competition) (log2 fold change); higher = less target engagement (more negative = stronger competition). To be noted: THP-1, incubation time: 4 h.
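Note: competitive profiling in live THP-1 cells: cysteine peptides tagged with an iodoacetamide desthiobiotin (IA-DTB) probe, intensity after compound treatment relative to DMSO-treated cells.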

Regarding “UNC13D_Q70J99_992_DLHPLFDETFEFLVPAEPCR (UniProt Q70J99)”, the “probe-labelled cysteine peptide fold change” value runs as follows: (10 µM) -0.313; (50 µM) -0.325.
Regarding “USP7_Q93009_510_HCTNAYMLVYIR (UniProt Q93009)”, the “probe-labelled cysteine peptide fold change” value runs as follows: (10 µM) -0.0456; (50 µM) 0.138.
For “UPF1_Q92900_675+683_QLILVGDHCQLGPVVMCK (UniProt Q92900)”, the “probe-labelled cysteine peptide fold change” value runs as follows: (10 µM) -0.248; (50 µM) -0.549.
Regarding “UFL1_O94874_32_NCIEIVNK (UniProt O94874)”, the “probe-labelled cysteine peptide fold change” value (10 µM) was determined as 0.0252 and the “probe-labelled cysteine peptide fold change” value (50 µM) was 0.178.
In the case of “USP38_Q8NB14_834_LKPSGTDEASCTK (UniProt Q8NB14)”, the “probe-labelled cysteine peptide fold change” value reads like this: (10 µM) -0.1; (50 µM) -0.417.
For “URB2_Q14146_1380_LHNVLFSILQCHPK (UniProt Q14146)”, in that order: 0.325 and 0.95.
For “UCKL1_Q9NWZ5_35_SETACEDR (UniProt Q9NWZ5)”, in that order: -0.306 and -0.0689.
The corresponding values for “UBXN7_O94888_478_KLSHLDYDITLQEAGLCPQETVFVQER (UniProt O94888)” are 0.134 and -0.0436.
In the case of “USP33_Q8TEY7_278_CLMDLLHEELK (UniProt Q8TEY7)”, the “probe-labelled cysteine peptide fold change” value runs as follows: (10 µM) 0.136; (50 µM) -0.0902.
The corresponding values for “USP7_Q93009_721_IRDLLPVMCDR (UniProt Q93009)” are 0.0128 and 0.0048.
With “UROS_P10746_265_ALQPHGCC (UniProt P10746)”, the “probe-labelled cysteine peptide fold change” value reads like this: (10 µM) -0.0814; (50 µM) -0.339.
The corresponding values for “UMPS_P11172_304_CHEFLIFEDRK (UniProt P11172)” are 0.14 and -0.0767.
For the target “USP6_P35125_1237_ENGAGQICELADALSR (UniProt P35125)”, the “probe-labelled cysteine peptide fold change” value was -0.416 (10 µM) and -0.707 (50 µM).
With “URGCP_Q8TCY9_629_EMGQFYEAESCLVEAGRLPAGQR (UniProt Q8TCY9)”, the “probe-labelled cysteine peptide fold change” value reads like this: (10 µM) -0.181; (50 µM) -0.317.
The corresponding values for “USP40_Q9NVE5_798_ELADNSCLRPIDR (UniProt Q9NVE5)” are -0.146 and -0.0986.
Turning to “UHRF2_Q96PU4_42_VWALFDVRPECQR (UniProt Q96PU4)”, the “probe-labelled cysteine peptide fold change” value reads like this: (10 µM) -0.064; (50 µM) 0.118.
The corresponding values for “USP7_Q93009_315_GTCVEGTIPK (UniProt Q93009)” are -0.214 and -0.68.
The corresponding values for “USP16_Q9Y5T5_726_HIKFPEILDLAPFCTLK (UniProt Q9Y5T5)” are -0.238 and -0.859.
For “USP4_Q13107_649_QPLPDEFGSSPLEPGACNGSR (UniProt Q13107)”, in that order: -0.383 and -0.622.
For “UPF3A_Q9H1J1_315_QESCAPGAVVK (UniProt Q9H1J1)”, the “probe-labelled cysteine peptide fold change” value by setting is: (10 µM) -0.016; (50 µM) 0.245.
The corresponding values for “USP48_Q86UV5_652+658_KEEEELNFNEDILCPHGELCISENERR (UniProt Q86UV5)” are -0.493 and -1.42.
For the target “UNC45A_Q9H3U1_800_AATECMCNLAMSK (UniProt Q9H3U1)”, the “probe-labelled cysteine peptide fold change” value is 0.0257 (10 µM) and -0.371 (50 µM).
Regarding “USP9X_Q93008_1451_KFHIGCEK (UniProt Q93008)”, the “probe-labelled cysteine peptide fold change” value by setting is: (10 µM) -0.0761; (50 µM) -0.229.
On to “UBR7_Q8N806_260_VEQNSEPCAGSSSESDLQTVFK (UniProt Q8N806)”, for which the “probe-labelled cysteine peptide fold change” value by setting is: (10 µM) -0.17; (50 µM) -0.285.
Consider “USP19_O94966_833_GLCRPENIGYPFLVSVPASR (UniProt O94966)”, for which the “probe-labelled cysteine peptide fold change” value is, setting by setting: (10 µM) 0.0512; (50 µM) -0.111.
The corresponding values for “USP7_Q93009_721_DLLPVMCDR (UniProt Q93009)” are 0.207 and 0.24.
With “UHRF1BP1L_A0JNW5_592_SECHQDQPR (UniProt A0JNW5)”, the “probe-labelled cysteine peptide fold change” value was 0.307 (10 µM) and -0.402 (50 µM).
The corresponding values for “UGDH_O60701_27_ICCIGAGYVGGPTCSVIAHMCPEIR (UniProt O60701)” are 0.146 and 0.000622.
As to “USP24_Q9UPU5_116_NDENGNCSGEGIEFPTTNLYELESR (UniProt Q9UPU5)”, the “probe-labelled cysteine peptide fold change” value reads like this: (10 µM) 0.035; (50 µM) 0.11.
The corresponding values for “USP40_Q9NVE5_50_NQGGTCYLNSLLQTLHFTPEFR (UniProt Q9NVE5)” are -0.592 and -1.83.
Turning to “USP14_P54578_359_FPLMLDMYELCTPELQEK (UniProt P54578)”, the “probe-labelled cysteine peptide fold change” value is -0.0328 (10 µM) and -0.0621 (50 µM).
As to “UROS_P10746_14_EDDCGQDPYIR (UniProt P10746)”, the “probe-labelled cysteine peptide fold change” value (10 µM) was -0.161 and the “probe-labelled cysteine peptide fold change” value (50 µM) was found to be 0.0974.
Turning to “UROD_P06132_66_SPEACCELTLQPLR (UniProt P06132)”, the “probe-labelled cysteine peptide fold change” value is -0.0974 (10 µM) and -0.254 (50 µM).
For “UFD1_Q92890_25_CFSVSMLAGPNDR (UniProt Q92890)”, in that order: 0.0693 and 0.143.
“UHRF1_Q96T88_727+739_VEETFQCICCQELVFRPITTVCQHNVCK (UniProt Q96T88)”: the “probe-labelled cysteine peptide fold change” value (10 µM) is -0.0208 and the “probe-labelled cysteine peptide fold change” value (50 µM) is -0.18.
For “UHRF1_Q96T88_170_DEPCSSTSRPALEEDVIYHVK (UniProt Q96T88)”, in that order: -0.141 and -0.0348.
The corresponding values for “UHRF1_Q96T88_497_RTAEQSCDQK (UniProt Q96T88)” are -0.106 and 0.0439.
For “UHRF1BP1L_A0JNW5_647_SCDNFNLLHPIFQR (UniProt A0JNW5)”, in that order: -0.0862 and -0.265.
For the target “USP15_Q9Y4E8_570_TEDTEHVIIPVCLR (UniProt Q9Y4E8)”, the “probe-labelled cysteine peptide fold change” value by setting is: (10 µM) 0.0687; (50 µM) 0.0155.
“UBTF_P17480_33_WSQEDMLTLLECMK (UniProt P17480)”: the “probe-labelled cysteine peptide fold change” value runs as follows: (10 µM) 0.198; (50 µM) -0.000557.
As for “UROS_P10746_143_ESSALPLLFPCGNLKR (UniProt P10746)”, the “probe-labelled cysteine peptide fold change” value reads like this: (10 µM) -0.128; (50 µM) -0.405.
Consider “USP48_Q86UV5_514_WLDESTPTKPIDNHACLCSHDK (UniProt Q86UV5)”, for which the “probe-labelled cysteine peptide fold change” value was -0.0953 (10 µM) and -0.81 (50 µM).
